Measurements: publication PMC6779757
No constants are given. Whether binding was seen depends on the method and setting. Binding seen in cells or lysates may run through a third protein. Binding can be weak; no strength is given. For some assays here: Tags and fused reporters may be left off the sequences shown.

Amino acid sequences for entries named in this document (tags omitted). A change or cut given only in a name is not applied to a line headed by its entry.
UniProt P09237: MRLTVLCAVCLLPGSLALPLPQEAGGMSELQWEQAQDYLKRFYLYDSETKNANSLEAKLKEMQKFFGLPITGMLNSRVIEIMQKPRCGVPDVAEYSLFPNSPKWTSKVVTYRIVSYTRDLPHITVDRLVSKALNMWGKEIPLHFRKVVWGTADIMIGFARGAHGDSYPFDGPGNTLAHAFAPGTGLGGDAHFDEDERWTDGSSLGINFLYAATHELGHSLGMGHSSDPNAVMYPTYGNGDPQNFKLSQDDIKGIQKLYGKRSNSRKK

Legend:
[1] = molecular target: T1, full-length GP73, FLAG-tagged (pCMV-c-FLAG) (human) (UniProt Q8NBJ4); experiment: co-IP; 293 T cells transfected with pCMV-c-FLAG GP73 constructs, 48 h; RIPA lysate; precipitated with rabbit anti-FLAG pAb, blotted with the indicated antibodies
T1 sequence: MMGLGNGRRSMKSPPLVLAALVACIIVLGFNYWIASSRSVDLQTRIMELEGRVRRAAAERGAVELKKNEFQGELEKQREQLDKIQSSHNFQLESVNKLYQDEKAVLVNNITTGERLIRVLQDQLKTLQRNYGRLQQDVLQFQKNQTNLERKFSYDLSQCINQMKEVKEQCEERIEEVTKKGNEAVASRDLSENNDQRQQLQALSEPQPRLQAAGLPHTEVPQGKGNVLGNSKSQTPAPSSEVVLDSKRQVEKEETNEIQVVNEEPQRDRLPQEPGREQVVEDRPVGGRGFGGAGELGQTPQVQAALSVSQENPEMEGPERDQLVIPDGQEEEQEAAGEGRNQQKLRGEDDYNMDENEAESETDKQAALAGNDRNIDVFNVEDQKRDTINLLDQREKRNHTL

[2] = molecular target: T2, Golgi phosphoprotein 73 (GP73) (human) (UniProt Q8NBJ4); experiment: co-IP; lysates (RIPA buffer) of HepG2 and MHCC-97H cells after GP73 mediation; anti-GP73 mAb or normal rabbit IgG with magnetic beads, 4 °C overnight; MMP-7 detected by immunoblot
T2 sequence: T1 sequence

## matrix metalloproteinase-7 (MMP-7) (from UniProt P09237)
[1]
  binding: binds
[2]
  binding: binds
